Results deposited as PubChem BioAssay AID1159584 (Peter MacCallum Cancer Centre, 2016)
In all, the deposit lists about 18,000 reagents; shown is a part drawn at random. Not all columns of the deposit are shown. Reagent sequences are not shown. Not stated in the record: the amount of reagent, the time to read-out.

Purpose: 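Genes that CDH1-null MCF10A cells selectively depend on to survive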 (primary screen)
Cell system: human MCF10A breast epithelial cells, parental and CDH1-null
Reagents: siRNA against human genes
Read-out: 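ATP luminescence (CellTiter-Glo) viability per line relative to mean mock wells over all plates, and the ratio of CDH1-null to parental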
Direction: CDH1-null / parental viability ratio: higher = CDH1-null cells survive relatively better than parental

Target gene	CDH1-null / parental viability ratio
PSMD1 (proteasome 26S subunit, non-ATPase 1)	1.21
SUZ12 (SUZ12 polycomb repressive complex 2 subunit)	1.2
HEMGN (hemogen)	0.97
KRTAP19-4 (keratin associated protein 19-4)	1.31
PRM3 (protamine 3)	0.85
MPDZ (multiple PDZ domain crumbs cell polarity complex component)	1.05
PROSER3 (proline and serine rich 3)	1.08
VPS16 (VPS16 core subunit of CORVET and HOPS complexes)	1.36
THOC5 (THO complex subunit 5)	0.88
COX11 (cytochrome c oxidase copper chaperone COX11)	1.01
ANKRD30A (ankyrin repeat domain 30A)	1
LMBRD1 (LMBR1 domain containing 1)	0.94
ARHGAP11B (Rho GTPase activating protein 11B)	0.87
FOXN1 (forkhead box N1)	0.93
ENOX2 (ecto-NOX disulfide-thiol exchanger 2)	0.92
ZSCAN22 (zinc finger and SCAN domain containing 22)	0.86
KLK4 (kallikrein related peptidase 4)	0.98
ERGIC1 (endoplasmic reticulum-golgi intermediate compartment 1)	1
NUP42 (nucleoporin 42)	1.11
G6PC3 (glucose-6-phosphatase catalytic subunit 3)	1.56
NIPAL2 (NIPA like domain containing 2)	0.81
ELOF1 (elongation factor 1)	0.76
MOGS (mannosyl-oligosaccharide glucosidase)	0.81
CHMP4B (charged multivesicular body protein 4B)	0.76
PLCG2 (phospholipase C gamma 2)	0.8
CLDND2 (claudin domain containing 2)	1.33
ALB (albumin)	1.09
SERPINA7 (serpin family A member 7)	0.99
CNTF (ciliary neurotrophic factor)	1.1
UGT1A5 (UDP glucuronosyltransferase family 1 member A5)	0.84
OR2A42 (olfactory receptor family 2 subfamily A member 42)	0.97
PAXBP1 (PAX3 and PAX7 binding protein 1)	1.17
MFAP2 (microfibril associated protein 2)	0.76
GRHL2 (grainyhead like transcription factor 2)	1.15
JAG1 (jagged canonical Notch ligand 1)	0.79
ZBTB35 (zinc finger and BTB domain containing 35)	1.33
STIM1 (stromal interaction molecule 1)	1.1
ZNF267 (zinc finger protein 267)	1.02
C3orf18 (chromosome 3 open reading frame 18)	0.94
TSEN34 (tRNA splicing endonuclease subunit 34)	0.9
P4HB (prolyl 4-hydroxylase subunit beta)	1.19
GRM8 (glutamate metabotropic receptor 8)	1.46
SKI (SKI proto-oncogene)	0.88
ATP6V1D (ATPase H+ transporting V1 subunit D)	1
PKD2 (polycystin 2, transient receptor potential cation channel)	1.14
NRROS (negative regulator of reactive oxygen species)	0.95
CC2D2B (coiled-coil and C2 domain containing 2B)	1.09
RNF103 (ring finger protein 103)	0.96
GTF3C1 (general transcription factor IIIC subunit 1)	1.14
GUCD1 (guanylyl cyclase domain containing 1)	0.79
METTL8 (methyltransferase 8, tRNA N3-cytidine)	0.91
SAXO6 (stabilizer of axonemal microtubules 6)	1.11
EDNRB (endothelin receptor type B)	1.29
CBR4 (carbonyl reductase 4)	0.89
FCAMR (Fc alpha and mu receptor)	1.2
SENP5 (SUMO specific peptidase 5)	1.12
CCDC107 (coiled-coil domain containing 107)	1.1
TMEM219 (transmembrane protein 219)	1.39
LDHC (lactate dehydrogenase C)	1.05
ID4 (inhibitor of DNA binding 4)	0.86
LINC03040 (long independently transcribed non-coding RNA 3040)	0.89
SPACA7 (sperm acrosome associated 7)	0.93
NELL2 (neural EGFL like 2)	1.15
STEEP1 (STING1 ER exit protein 1)	0.76
TNFRSF9 (TNF receptor superfamily member 9)	0.68
FANCF (FA complementation group F)	0.89
DHPS (deoxyhypusine synthase)	1.51
BCKDHB (branched chain keto acid dehydrogenase E1 subunit beta)	1.01
DBNDD2 (dysbindin domain containing 2)	1.2
DTYMK (deoxythymidylate kinase)	0.96
NUP210 (nucleoporin 210)	1.14
SPTAN1 (spectrin alpha, non-erythrocytic 1)	0.71
LYST (lysosomal trafficking regulator)	0.72
ANO6 (anoctamin 6)	1.28
INSL4 (insulin like 4)	1.27
CLMN (calmin)	1.06
RPS6KA4 (ribosomal protein S6 kinase A4)	0.63
OR10H3 (olfactory receptor family 10 subfamily H member 3)	0.86
RNF152 (ring finger protein 152)	1.04
CLEC4C (C-type lectin domain family 4 member C)	0.93
ZNF710 (zinc finger protein 710)	1.23
IL4I1 (interleukin 4 induced 1)	1.01
PPEF1 (protein phosphatase with EF-hand domain 1)	1.23
KDM4A (lysine demethylase 4A)	0.85
ZNF532 (zinc finger protein 532)	1.14
MOG (myelin oligodendrocyte glycoprotein)	1.5
LGR4 (leucine rich repeat containing G protein-coupled receptor 4)	0.91

14 entries from above in another layout.
{"Target gene": "VPS16 (VPS16 core subunit of CORVET and HOPS complexes)", "CDH1-null / parental viability ratio": 1.36}
{"Target gene": "THOC5 (THO complex subunit 5)", "CDH1-null / parental viability ratio": 0.88}
{"Target gene": "COX11 (cytochrome c oxidase copper chaperone COX11)", "CDH1-null / parental viability ratio": 1.01}
{"Target gene": "ANKRD30A (ankyrin repeat domain 30A)", "CDH1-null / parental viability ratio": 1}
{"Target gene": "LMBRD1 (LMBR1 domain containing 1)", "CDH1-null / parental viability ratio": 0.94}
{"Target gene": "ARHGAP11B (Rho GTPase activating protein 11B)", "CDH1-null / parental viability ratio": 0.87}
{"Target gene": "FOXN1 (forkhead box N1)", "CDH1-null / parental viability ratio": 0.93}
{"Target gene": "ENOX2 (ecto-NOX disulfide-thiol exchanger 2)", "CDH1-null / parental viability ratio": 0.92}
{"Target gene": "ZSCAN22 (zinc finger and SCAN domain containing 22)", "CDH1-null / parental viability ratio": 0.86}
{"Target gene": "KLK4 (kallikrein related peptidase 4)", "CDH1-null / parental viability ratio": 0.98}
{"Target gene": "ERGIC1 (endoplasmic reticulum-golgi intermediate compartment 1)", "CDH1-null / parental viability ratio": 1}
{"Target gene": "NUP42 (nucleoporin 42)", "CDH1-null / parental viability ratio": 1.11}
{"Target gene": "G6PC3 (glucose-6-phosphatase catalytic subunit 3)", "CDH1-null / parental viability ratio": 1.56}
{"Target gene": "NIPAL2 (NIPA like domain containing 2)", "CDH1-null / parental viability ratio": 0.81}
